The record followed here is publication PMC9110474.

Amino acid sequences for entries named in this document (tags omitted). A change or cut given only in a name is not applied to a line headed by its entry.
UniProt P07213: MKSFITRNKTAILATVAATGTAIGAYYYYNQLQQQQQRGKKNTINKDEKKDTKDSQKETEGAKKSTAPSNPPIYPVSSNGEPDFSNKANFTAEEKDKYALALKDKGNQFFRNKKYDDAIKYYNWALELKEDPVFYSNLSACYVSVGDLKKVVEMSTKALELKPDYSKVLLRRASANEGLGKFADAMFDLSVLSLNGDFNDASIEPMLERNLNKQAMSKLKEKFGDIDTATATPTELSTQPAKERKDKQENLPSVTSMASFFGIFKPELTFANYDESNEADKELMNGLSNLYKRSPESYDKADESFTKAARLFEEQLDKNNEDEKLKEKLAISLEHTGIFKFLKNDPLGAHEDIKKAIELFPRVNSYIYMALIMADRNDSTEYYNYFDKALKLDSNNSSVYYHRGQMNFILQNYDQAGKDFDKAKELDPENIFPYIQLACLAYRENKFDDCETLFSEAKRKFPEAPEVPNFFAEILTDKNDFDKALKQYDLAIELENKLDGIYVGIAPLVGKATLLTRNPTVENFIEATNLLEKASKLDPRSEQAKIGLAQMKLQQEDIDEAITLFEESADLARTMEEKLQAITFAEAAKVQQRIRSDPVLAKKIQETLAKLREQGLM
UniProt Q9BXM7: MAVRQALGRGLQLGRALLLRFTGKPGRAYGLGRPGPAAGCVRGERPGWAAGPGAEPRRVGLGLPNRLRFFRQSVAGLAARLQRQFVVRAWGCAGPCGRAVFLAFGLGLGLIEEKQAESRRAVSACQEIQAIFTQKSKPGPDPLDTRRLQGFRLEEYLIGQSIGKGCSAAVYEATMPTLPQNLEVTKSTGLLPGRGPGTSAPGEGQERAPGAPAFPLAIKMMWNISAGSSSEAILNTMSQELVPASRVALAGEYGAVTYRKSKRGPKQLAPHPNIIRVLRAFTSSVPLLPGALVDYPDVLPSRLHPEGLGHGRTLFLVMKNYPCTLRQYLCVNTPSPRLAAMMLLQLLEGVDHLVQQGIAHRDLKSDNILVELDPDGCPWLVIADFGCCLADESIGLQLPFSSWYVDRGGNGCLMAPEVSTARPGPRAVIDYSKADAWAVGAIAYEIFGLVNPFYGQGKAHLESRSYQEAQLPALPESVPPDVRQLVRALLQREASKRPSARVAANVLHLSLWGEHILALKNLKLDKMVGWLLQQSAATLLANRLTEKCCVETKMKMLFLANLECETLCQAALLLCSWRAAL

No constants are given. Whether binding was seen depends on the method and setting. Binding seen in cells or lysates may run through a third protein. Binding calls can cover weak binding; strength is not graded here.

The target in the test is GST-Tom70 (cytosolic domain) (yeast) (UniProt P07213). The test can be described thus: pull-down; GST-fusion proteins on Glutathione Sepharose 4B beads, blocked with reticulocyte lysate, incubated 1 h at 4 °C with radiolabeled proteins, 0.2 mM ATP every 30 min; GST basic buffer (20 mM HEPES, pH 7.25, 100 mM NaCl, 1.5 mM MgCl2); SDS-PAGE and autoradiography; only the target purified.

As to “PINK1 (human, native, radiolabeled) (from UniProt Q9BXM7 1-581)”, the binding result was “binds”.

Consider “PINK1 fragment 35–120 (radiolabeled) (from UniProt Q9BXM7 35-120) (domain or fragment)”, for which the binding entry is given as “binds”.

Consider “PINK1 fragment 1–120 (radiolabeled) (from UniProt Q9BXM7 1-120) (domain or fragment)”, for which the binding result is given as “binds”.
